Data taken from doi:10.1101/458489.
Results are given in words; binding and its absence hold for the method and conditions named. Binding seen in cells or lysates may run through a third protein. Here binding means that the protein was enriched with, or labelled near, the bait; the list need not be complete. For part of these data: No binding means not detected with the bait.

Protein sequences, listed by entry. Tags and fused reporters are not part of them. Residues count along the entry.
UniProt P06241: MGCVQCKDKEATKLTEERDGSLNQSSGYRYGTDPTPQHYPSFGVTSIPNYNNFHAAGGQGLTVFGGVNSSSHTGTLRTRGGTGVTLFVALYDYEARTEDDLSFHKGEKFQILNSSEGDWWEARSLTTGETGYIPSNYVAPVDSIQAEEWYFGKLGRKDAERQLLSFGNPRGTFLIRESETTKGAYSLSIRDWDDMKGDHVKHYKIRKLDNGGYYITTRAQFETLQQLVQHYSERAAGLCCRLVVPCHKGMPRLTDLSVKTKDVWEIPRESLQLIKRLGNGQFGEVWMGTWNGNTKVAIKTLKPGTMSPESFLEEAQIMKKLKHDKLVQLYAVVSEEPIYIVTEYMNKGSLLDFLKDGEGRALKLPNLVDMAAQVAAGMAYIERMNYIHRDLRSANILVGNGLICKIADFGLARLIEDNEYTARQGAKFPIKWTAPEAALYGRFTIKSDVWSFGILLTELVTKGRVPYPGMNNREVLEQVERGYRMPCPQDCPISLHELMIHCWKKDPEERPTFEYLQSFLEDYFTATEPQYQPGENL
UniProt P08575, residues 26-1306: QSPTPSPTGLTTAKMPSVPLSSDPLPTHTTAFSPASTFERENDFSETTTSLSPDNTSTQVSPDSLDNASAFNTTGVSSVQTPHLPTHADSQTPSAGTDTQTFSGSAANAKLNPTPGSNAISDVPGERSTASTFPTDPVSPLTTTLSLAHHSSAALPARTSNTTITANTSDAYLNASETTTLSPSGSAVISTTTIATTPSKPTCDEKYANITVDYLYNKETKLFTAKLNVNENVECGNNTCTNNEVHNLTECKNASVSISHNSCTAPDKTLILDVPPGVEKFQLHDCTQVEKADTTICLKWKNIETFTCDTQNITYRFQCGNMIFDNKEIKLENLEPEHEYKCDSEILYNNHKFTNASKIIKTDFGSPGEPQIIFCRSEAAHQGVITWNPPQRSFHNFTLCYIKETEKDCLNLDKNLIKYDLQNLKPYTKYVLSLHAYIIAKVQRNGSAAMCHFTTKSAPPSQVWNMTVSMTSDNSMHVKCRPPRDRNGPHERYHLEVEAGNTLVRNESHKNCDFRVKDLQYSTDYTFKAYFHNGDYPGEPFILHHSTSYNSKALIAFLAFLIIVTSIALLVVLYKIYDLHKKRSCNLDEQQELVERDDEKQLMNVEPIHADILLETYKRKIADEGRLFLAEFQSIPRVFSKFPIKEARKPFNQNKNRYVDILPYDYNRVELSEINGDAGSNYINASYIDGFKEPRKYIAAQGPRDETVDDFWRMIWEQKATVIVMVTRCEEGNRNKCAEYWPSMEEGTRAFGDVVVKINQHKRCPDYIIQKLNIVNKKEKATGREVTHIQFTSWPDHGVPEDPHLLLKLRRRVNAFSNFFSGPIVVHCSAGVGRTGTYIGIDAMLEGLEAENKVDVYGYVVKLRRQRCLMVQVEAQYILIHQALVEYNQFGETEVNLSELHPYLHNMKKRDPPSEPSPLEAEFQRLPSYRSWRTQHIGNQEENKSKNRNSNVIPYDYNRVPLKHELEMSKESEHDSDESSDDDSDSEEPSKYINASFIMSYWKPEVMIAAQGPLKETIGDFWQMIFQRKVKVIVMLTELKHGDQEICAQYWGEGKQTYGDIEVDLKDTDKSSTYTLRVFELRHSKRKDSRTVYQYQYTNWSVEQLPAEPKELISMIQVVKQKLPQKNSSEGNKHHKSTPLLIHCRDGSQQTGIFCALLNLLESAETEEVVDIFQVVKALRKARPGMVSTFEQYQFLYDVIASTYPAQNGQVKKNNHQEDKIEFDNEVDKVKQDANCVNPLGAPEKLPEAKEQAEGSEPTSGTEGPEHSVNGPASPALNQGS
UniProt P10586, residues 30-1907: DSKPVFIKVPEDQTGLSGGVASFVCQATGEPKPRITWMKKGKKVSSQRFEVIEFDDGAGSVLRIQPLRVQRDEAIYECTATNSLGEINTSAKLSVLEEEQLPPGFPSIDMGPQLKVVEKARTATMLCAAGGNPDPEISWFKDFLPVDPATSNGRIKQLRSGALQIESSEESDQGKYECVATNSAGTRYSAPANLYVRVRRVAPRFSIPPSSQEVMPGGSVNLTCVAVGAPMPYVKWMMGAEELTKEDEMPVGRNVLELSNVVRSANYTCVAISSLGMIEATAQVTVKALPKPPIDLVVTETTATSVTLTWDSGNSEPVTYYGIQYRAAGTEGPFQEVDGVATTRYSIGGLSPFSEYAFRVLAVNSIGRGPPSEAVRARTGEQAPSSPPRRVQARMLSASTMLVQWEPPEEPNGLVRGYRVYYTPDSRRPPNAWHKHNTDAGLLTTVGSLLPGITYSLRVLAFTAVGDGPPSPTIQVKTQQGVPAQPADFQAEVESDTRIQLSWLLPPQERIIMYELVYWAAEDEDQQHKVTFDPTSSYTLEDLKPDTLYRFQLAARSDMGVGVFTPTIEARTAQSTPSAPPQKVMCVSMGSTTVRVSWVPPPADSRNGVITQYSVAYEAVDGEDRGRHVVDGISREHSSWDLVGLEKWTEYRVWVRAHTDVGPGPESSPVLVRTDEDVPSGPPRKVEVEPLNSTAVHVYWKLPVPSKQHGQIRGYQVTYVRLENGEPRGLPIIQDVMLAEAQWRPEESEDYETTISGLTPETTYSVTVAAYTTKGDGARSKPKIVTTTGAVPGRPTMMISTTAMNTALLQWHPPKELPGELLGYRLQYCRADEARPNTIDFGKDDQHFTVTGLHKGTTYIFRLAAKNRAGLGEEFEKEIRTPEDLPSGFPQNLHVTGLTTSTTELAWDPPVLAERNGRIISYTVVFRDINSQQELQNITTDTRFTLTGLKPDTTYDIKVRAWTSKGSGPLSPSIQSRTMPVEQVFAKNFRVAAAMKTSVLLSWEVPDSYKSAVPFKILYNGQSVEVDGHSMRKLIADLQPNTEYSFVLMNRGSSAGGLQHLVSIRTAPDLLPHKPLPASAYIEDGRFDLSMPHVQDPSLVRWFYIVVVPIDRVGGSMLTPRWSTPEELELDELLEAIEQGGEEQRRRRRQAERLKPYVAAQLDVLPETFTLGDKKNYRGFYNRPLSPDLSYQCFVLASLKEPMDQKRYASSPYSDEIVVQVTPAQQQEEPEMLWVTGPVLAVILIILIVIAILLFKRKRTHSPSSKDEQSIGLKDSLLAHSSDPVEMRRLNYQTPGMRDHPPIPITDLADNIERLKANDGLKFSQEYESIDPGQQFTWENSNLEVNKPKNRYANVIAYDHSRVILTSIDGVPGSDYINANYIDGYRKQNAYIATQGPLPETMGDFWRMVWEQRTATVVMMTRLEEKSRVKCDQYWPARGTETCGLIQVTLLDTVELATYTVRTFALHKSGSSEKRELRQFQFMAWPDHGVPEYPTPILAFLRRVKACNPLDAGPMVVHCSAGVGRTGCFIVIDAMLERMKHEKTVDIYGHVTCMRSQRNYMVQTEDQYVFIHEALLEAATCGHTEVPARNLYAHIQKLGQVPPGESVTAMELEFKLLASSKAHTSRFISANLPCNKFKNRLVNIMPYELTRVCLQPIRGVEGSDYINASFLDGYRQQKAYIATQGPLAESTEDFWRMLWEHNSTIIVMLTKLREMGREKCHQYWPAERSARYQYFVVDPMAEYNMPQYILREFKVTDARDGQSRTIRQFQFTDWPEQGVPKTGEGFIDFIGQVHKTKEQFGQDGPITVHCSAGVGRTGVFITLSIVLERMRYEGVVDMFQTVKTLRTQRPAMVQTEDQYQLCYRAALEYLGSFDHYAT

B1: PTPN5 (enzyme, UniProt P54829 1-565)
chain: MNYEGARSERENHAADDSEGGALDMCCSERLPGLPQPIVMEALDEAEGLQDSQREMPPPPPPSPPSDPAQKPPPRGAGSHSLTVRSSLCLFAASQFLLACGVLWFSGYGHIWSQNATNLVSSLLTLLKQLEPTAWLDSGTWGVPSLLLVFLSVGLVLVTTLVWHLLRTPPEPPTPLPPEDRRQSVSRQPSFTYSEWMEEKIEDDFLDLDPVPETPVFDCVMDIKPEADPTSLTVKSMGLQERRGSNVSLTLDMCTPGCNEEGFGYLMSPREESAREYLLSASRVLQAEELHEKALDPFLLQAEFFEIPMNFVDPKEYDIPGLVRKNRYKTILPNPHSRVCLTSPDPDDPLSSYINANYIRGYGGEEKVYIATQGPIVSTVADFWRMVWQEHTPIIVMITNIEEMNEKCTEYWPEEQVAYDGVEITVQKVIHTEDYRLRLISLKSGTEERGLKHYWFTSWPDQKTPDRAPPLLHLVREVEEAAQQEGPHCAPIIVHCSAGIGRTGCFIATSICCQQLRQEGVVDILKTTCQLRQDRGGMIQTCEQYQFVHHVMSLYEKQLSHQSPE

Tests used:
[1] = target: FLAG-tagged Fyn (UniProt P06241); experiment: affinity purification with mass spectrometry
[2] = target: FLAG-tagged Fyn (UniProt P06241); experiment: condition: only cells treated with AMPK activator A769662
[3] = target: FLAG-tagged Fyn (UniProt P06241); experiment: condition: only control DMSO treated cells
[4] = target: FLAG-tagged Fyn (UniProt P06241); experiment: affinity purification with mass spectrometry; remark: listed apart in the source

Molecule	binding [1]	binding [2]	binding [3]	binding [4]
PTPRC (from UniProt P08575 26-1306) (enzyme)	binds	no binding	–	–
PTPRF (from UniProt P10586 30-1907) (enzyme)	binds	–	no binding	–
B1	–	no binding	–	binds
